Reference: patent US12558356B2, “Immunophilin binding agents and uses thereof” (The Regents of the University of California, priority 2019, dated 2026)
Structures were worked out from names or drawings and are uncertain.

Experiments:
MCF7 cells = assay: Blocking of RapaLink-1 function in MCF7 cell culture (blots); conditions: 24 h treatment, tested form: formate
[1] = test system: NFAT promoter in Jurkat cells; assay: NFAT promoter secreted luciferase assay in Jurkat cells stimulated with PMA/ionomycin; format: cell-based; conditions: up to 10 μM, PMA 10 ng/mL and ionomycin 1 μg/mL, 16 h, tested form: formate
p-S6 level in MCF7 cells = assay: Western blot of p-S6 level in MCF7 cells after combination treatment with Rapa/Rapalink and candidate compound (blockade score); conditions: 24 h, p-S6 level as fraction of DMSO control; for Rapamycin Blockade: 10 nM Rapa + 10 μM candidate compound; for RapaLink-1 Blockade: 10 nM Rapalink + 10 μM candidate compound
[2] = test system: mTOR signaling in brain and skeletal muscle; assay: In vivo brain/periphery mTOR inhibition in mouse model, blocker combined with rapamycin or RapaLink-1; conditions: 1 mg/kg Rapalink-1 + 40 mg/kg compound, tested form: formate
mTOR = assay: Protection of mouse tissue from RapaLink-1 (western blotting of skeletal muscle and brain); conditions: tested form: formate

CO[C@H]1C[C@@H](C)C/C(C)=C/[C@@H](CCCSCCNC(=O)Cc2ccccn2)C(=O)C[C@H](O)[C@@H](C)[C@@H](/C(C)=C/[C@@H]2CC[C@@H](O)[C@H](OC)C2)OC(=O)[C@@H]2CCCCN2C(=O)C(=O)[C@]2(O)O[C@H]1[C@@H](OC)C[C@H]2C
durability of protective effects after washout (MCF7 cells): durable even after washout | immunosuppression (NFAT luciferase) [1]: not immunosuppressive | Rapamycin Blockade (p-S6 level in MCF7 cells; tested form: formate): 3 (>70%) | RapaLink-1 Blockade (p-S6 level in MCF7 cells; tested form: formate): 3 (>70%) | In Vivo [2]: Dose: 1 mg/kg Rapalink-1 + 40 mg/kg ZZY05- 026; Blocks Rapalink-1 in muscle, Potentiates RapaLink-1 in brain | protection of peripheral tissue from RapaLink-1 (mTOR): protects mouse peripheral tissue from RapaLink-1

CO[C@H]1C[C@@H](C)C/C(C)=C/[C@@H](C/C=C/c2ccncc2)C(=O)C[C@H](O)[C@@H](C)[C@@H](/C(C)=C/[C@@H]2CC[C@@H](O)[C@H](OC)C2)OC(=O)[C@@H]2CCCCN2C(=O)C(=O)[C@]2(O)O[C@H]1[C@@H](OC)C[C@H]2C
RapaLink-1 Blockade (p-S6 level in MCF7 cells): 3 (>70%)

CO[C@H]1C[C@@H](C)C/C(C)=C/[C@@H](CCCSCCNC(=O)CNc2ccccn2)C(=O)C[C@H](O)[C@@H](C)[C@@H](/C(C)=C/[C@@H]2CC[C@@H](O)[C@H](OC)C2)OC(=O)[C@@H]2CCCCN2C(=O)C(=O)[C@]2(O)O[C@H]1[C@@H](OC)C[C@H]2C
Rapamycin Blockade (p-S6 level in MCF7 cells; tested form: formate): 3 (>70%) | RapaLink-1 Blockade (p-S6 level in MCF7 cells; tested form: formate): 3 (>70%)
